# Assay results published in publication PMC7862700.
# Sequences of proteins named here, by UniProt entry; tags and fusion partners are left off. A change or cut given only in a name is not applied to a line headed by its entry.
# UniProt P41212: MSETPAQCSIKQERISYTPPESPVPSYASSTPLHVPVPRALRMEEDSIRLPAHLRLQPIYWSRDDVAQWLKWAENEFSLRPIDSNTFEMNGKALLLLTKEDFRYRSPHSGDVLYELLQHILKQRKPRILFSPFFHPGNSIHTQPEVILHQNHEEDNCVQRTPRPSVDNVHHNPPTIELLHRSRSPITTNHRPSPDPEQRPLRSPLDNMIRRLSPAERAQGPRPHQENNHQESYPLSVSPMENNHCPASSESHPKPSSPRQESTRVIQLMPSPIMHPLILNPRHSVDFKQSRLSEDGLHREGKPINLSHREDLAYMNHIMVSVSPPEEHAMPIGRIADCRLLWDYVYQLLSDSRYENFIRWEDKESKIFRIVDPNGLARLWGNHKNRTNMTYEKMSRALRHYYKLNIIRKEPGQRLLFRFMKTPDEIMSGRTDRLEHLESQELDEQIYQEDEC
# The entries are a selection whose mix differs from that of the whole data set. At the low end of the ranking the order means little.
# Target: ETV6 (UniProt P41212)
# Assay: DAPPL (digital affinity profiling via proximity ligation, sequencing)
# Settings: 10 mM Tris-HCl pH 7.5, 50 mM NaCl, 1 mM DTT, 4% glycerol, room temperature, 30 min; GST-TFs on glutathione beads, 16-mer random dsDNA library, 0.1% …; high values mean tight binding; double strand, one strand shown; scale: fold enrichment (6-mer frequency, TF over GST control)
row,Sequence,binding signal
1,GTTTTA,1.13
2,CAAGAT,1.01
3,ACTCAC,1.22
4,GACTTT,1.14
5,TCATCC,1.38
6,GGCCTC,1.09
7,TTCACG,1.43
8,CGAACG,0.981
9,TAAACT,1.13
10,GCAATT,0.955
11,TTTTCC,2.08
12,TGTTCG,0.996
13,CTTAAC,1.29
14,AAAACG,1.25
15,AGTAAT,1.15
16,TGATCA,0.949
17,ATAGGC,1.04
18,TTGCCA,1.06
19,TTTGCC,1.11
20,TCTCCT,1.44

row,Sequence,binding signal
1,ACCTTG,1.17
2,CTGTCT,1.32
3,AGGCTT,0.993
4,GCGTTT,1.04
5,TGCCAC,1.24
6,TGGCTG,1.02
7,CTAACC,0.988
8,GCTAGT,0.973
9,TTCGGC,0.989
10,AAAAAT,1.35
11,ATTATA,1.3
12,CTATTT,1.9
13,CCCACT,1.37
14,TGAACA,1.21
15,AAGGCT,1.02
16,CTGCGG,1.09
17,CGGTTT,1.23
18,CATGAC,1.18
19,CCACAT,1.2
20,GATCAT,0.94

# Two entries drawn at random from the list so far, as already listed:
row,Sequence,binding signal
10,AAAAAT,1.35
4,GCGTTT,1.04
